Data: paper PMC4669652
Results are given in words; binding and its absence hold for the method and conditions named. In cells and extracts the contact can be indirect. Binding can be weak; no strength is given. Tags and fused reporters may be left off the sequences shown.

Chains of the proteins cited; added tags and fusions are not shown. Lines headed by an entry give the natural chain unless they say otherwise; changes in a name come on top.
UniProt Q12772: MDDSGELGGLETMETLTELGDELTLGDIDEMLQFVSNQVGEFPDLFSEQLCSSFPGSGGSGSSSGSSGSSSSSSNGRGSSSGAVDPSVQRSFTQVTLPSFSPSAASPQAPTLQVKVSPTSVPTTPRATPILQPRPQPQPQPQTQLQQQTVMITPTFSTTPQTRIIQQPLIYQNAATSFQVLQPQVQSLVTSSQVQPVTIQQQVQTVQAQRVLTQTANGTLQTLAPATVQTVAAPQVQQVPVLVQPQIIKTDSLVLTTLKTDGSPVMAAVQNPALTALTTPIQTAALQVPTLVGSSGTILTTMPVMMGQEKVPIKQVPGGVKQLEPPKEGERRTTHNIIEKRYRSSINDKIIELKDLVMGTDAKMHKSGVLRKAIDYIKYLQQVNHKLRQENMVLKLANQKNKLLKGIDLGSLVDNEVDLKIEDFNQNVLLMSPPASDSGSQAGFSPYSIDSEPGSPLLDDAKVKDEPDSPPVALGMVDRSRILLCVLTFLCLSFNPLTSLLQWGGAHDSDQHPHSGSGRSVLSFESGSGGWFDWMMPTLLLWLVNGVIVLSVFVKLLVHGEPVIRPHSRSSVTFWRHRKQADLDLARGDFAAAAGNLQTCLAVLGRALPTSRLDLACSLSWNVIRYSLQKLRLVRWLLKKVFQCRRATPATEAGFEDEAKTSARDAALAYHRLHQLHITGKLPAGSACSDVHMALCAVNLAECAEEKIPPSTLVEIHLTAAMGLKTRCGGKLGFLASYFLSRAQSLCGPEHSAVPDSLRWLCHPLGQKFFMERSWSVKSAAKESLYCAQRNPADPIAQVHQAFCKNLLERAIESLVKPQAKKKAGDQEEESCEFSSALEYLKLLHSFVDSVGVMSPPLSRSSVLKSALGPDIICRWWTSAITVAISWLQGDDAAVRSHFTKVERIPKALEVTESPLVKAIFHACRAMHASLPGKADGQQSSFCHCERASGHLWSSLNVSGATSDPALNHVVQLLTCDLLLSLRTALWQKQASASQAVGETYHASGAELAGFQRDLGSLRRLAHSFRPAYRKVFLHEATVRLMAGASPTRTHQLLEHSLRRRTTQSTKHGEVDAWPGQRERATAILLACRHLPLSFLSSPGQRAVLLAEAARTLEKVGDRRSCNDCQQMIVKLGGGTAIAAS

What was measured:
GST-SHP full length = target: T1, GST-SHP full length (UniProt Q15466); test: pull-down; partially purified GST-fusion proteins incubated with the reciprocal protein synthesized by TNT; bound protein detected by immunoblot; only the target purified
T1 sequence: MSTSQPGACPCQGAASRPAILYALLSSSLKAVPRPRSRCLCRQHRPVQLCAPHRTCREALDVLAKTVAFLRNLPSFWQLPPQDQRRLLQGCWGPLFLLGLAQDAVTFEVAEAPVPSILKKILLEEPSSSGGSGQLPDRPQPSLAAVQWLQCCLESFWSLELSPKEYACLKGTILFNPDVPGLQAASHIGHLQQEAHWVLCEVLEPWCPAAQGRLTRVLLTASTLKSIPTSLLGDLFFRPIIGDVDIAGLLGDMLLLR

[1] = target: T2, GST-SHP N-terminal domain (1-92 aa) (UniProt Q15466); test: as above
T2 sequence: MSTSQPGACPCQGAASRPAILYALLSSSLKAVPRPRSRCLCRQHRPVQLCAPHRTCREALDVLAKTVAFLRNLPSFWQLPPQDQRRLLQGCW

binding (GST-SHP full length): binds
binding [1]: binds
Substance: SREBP-2 synthesized by TNT (from UniProt Q12772)
